# Results published in patent publication US20190169302A1 (SORRENTO THERAPEUTICS, published 2019).
# Results are given in words; binding and its absence hold for the method and conditions named. Some results given as binding are weak or reduced against the parent protein; the word gives no strength. For part of these data: Tags and fused reporters may be left off the sequences shown.
# T1: human OX40 antigen (soluble, titrated in the ELISA of Example 1) (human) (UniProt P43489)
# T1 sequence: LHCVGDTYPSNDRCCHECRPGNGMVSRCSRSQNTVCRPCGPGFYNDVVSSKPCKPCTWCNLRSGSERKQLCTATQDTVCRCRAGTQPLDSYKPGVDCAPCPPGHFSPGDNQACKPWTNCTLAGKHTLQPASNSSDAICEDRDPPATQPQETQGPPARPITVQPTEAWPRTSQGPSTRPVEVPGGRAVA
# T2: Recombinant human OX40/His (human) (UniProt P43489)
# T2 sequence: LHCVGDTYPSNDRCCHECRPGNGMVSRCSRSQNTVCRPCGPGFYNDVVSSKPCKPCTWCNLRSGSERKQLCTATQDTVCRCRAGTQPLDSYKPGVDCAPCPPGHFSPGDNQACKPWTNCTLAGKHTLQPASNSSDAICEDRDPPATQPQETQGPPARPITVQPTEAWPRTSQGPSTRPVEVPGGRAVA
# T3: human OX40 antigen (captured on Ni-NTA plate, Example 4) (human) (UniProt P43489)
# T3 sequence: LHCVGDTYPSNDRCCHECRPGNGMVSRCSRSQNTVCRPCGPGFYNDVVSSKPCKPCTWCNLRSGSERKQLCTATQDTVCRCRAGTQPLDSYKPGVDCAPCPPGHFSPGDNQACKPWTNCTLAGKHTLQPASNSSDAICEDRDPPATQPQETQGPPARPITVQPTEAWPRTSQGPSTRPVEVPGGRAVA
# Key:
# [1] = target: T1, human OX40 antigen (soluble, titrated in the ELISA of Example 1) (human); assay: ELISA, antibody coated, human OX40 antigen titrated
# [2] = target: T2, Recombinant human OX40/His (human); assay: SPR (Biacore T200), antibody captured by anti-human Fc, OX40/His as analyte
# [3] = target: T3, human OX40 antigen (captured on Ni-NTA plate, Example 4) (human); assay: ELISA, OX40 antigen captured on Ni-NTA plate, antibody at 1 ug/mL
binding [1],binding [2],binding [3],Binder
binds,,,"5-A6 variant anti-OX40 antibody (antibody, V domains shown) VH: QVQLVQSGAEVKKPGASVKVSCKTSGYTFTGYYLHWVRQAPGQGLEWMGIINPSDGSTRNAQKFEGRVTMTRDTSTSTVYMELSSLSPEDTAVYYCARDLEYIGSGSLSWFDPWGQGTLVTVSS VL: QSALTQPASVSGSPGQSITISCTGSSSDIGGYNSVSWYQQYPGKAPKLIIYDVNNRPSGVSNRFSGSKSGNTASLTISGLQAEDEADYYCSSYTFDTGLVYVFGTGTKVTVL"
binds,,,"5-C8 variant anti-OX40 antibody (antibody, V domains shown) VH: QVQLVQSGAEVKKPGASVKVSCKTSGYTFTGYYLHWVRQAPGQGLEWMGIINPSDGSTRNAQKFEGRVTMTRDTSTSTVYMELSSLSPEDTAVYYCARDLEYIGSGSLSWFDPWGQGTLVTVSS VL: QSALTQPASVSGSPGQSITISCTGSSSDIGGYNSVSWYQQYPGKAPKLIIYDVNNRPSGVSNRFSGSKSGNTASLTISGLQAEDEADYYCSSYTHNTGLVYVFGTGTKVTVL"
binds,binds,binds,"2B4 wild type anti-OX40 antibody (antibody, V domains shown, Fully human antibody of an IgG class, captured or detected through human Fc; the isotype control used was IgG1; also called 2B4 (WT); wild type 2B4) VH: QMQLVQSGAEVKKPGASVKVSCKTSGYTFTGYYLHWVRQAPGQGLEWMGIINPSDGSTRNAQKFEGRVTMTRDTSTSTVYMELSSLSPEDTAVYYCARDLEYIGSGSLSWFDPWGQGTLVTVSS VL: QPVLTQPASVSGSPGQSITISCTGTSSDLGAYDYVSWYQQQPGQAPKLIIYDVNNRPSGVSNRFSGSKSGNTASLTISGLQAEDEADYYCSSYTSSSTLVYVFGTGTKVTVL"
binds,,,"5-A8 variant anti-OX40 antibody (antibody, V domains shown) VH: QVQLVQSGAEVKKPGASVKVSCKTSGYTFTGYYLHWVRQAPGQGLEWMGIINPSDGSTRNAQKFEGRVTMTRDTSTSTVYMELSSLSPEDTAVYYCARDLEYIGSGSLSWFDPWGQGTLVTVSS VL: QSALTQPASVSGSPGQSITISCTGSSSDIGGYNSVSWYQQYPGKAPKLIIYDVNNRPSGVSNRFSGSKSGNTASLTISGLQAEDEADYYCSSYTFHTGLVYVFGTGTKVTVL"
binds,,,"5-F5 variant anti-OX40 antibody (antibody, V domains shown) VH: QVQLVQSGAEVKKPGASVKVSCKTSGYTFTGYYLHWVRQAPGQGLEWMGIINPSDGSTRNAQKFEGRVTMTRDTSTSTVYMELSSLSPEDTAVYYCARDLEYIGSGSLSWFDPWGQGTLVTVSS VL: QSALTQPASVSGSPGQSITISCTGSSSDIGGYNSVSWYQQYPGKAPKLIIYDVNNRPSGVSNRFSGSKSGNTASLTISGLQAEDEADYYCSSYTYDTGLVYVFGTGTKVTVL"
binds,,,"5-H6 variant anti-OX40 antibody (antibody, V domains shown) VH: QVQLVQSGAEVKKPGASVKVSCKTSGYTFTGYYLHWVRQAPGQGLEWMGIINPSDGSTRNAQKFEGRVTMTRDTSTSTVYMELSSLSPEDTAVYYCARDLEYIGSGSLSWFDPWGQGTLVTVSS VL: QSALTQPASVSGSPGQSITISCTGSSSDIGGYNSVSWYQQYPGKAPKLIIYDVNNRPSGVSNRFSGSKSGNTASLTISGLQAEDEADYYCSSYTYDNDLVYVFGTGTKVTVL"
binds,,,"5-G8 variant anti-OX40 antibody (antibody, V domains shown) VH: QVQLVQSGAEVKKPGASVKVSCKTSGYTFTGYYLHWVRQAPGQGLEWMGIINPSDGSTRNAQKFEGRVTMTRDTSTSTVYMELSSLSPEDTAVYYCARDLEYIGSGSLSWFDPWGQGTLVTVSS VL: QSALTQPASVSGSPGQSITISCTGSSSDIGGYNSVSWYQQYPGKAPKLIIYDVNNRPSGVSNRFSGSKSGNTASLTISGLQAEDEADYYCSSYTYYTELVYVFGTGTKVTVL"
